# Data as given in the supplement of paper PMC10338343.
# ± gives the standard deviation. Only a part is listed here, and it is no random draw. Many of these values have a large error. This is one part of the list.
# Columns and labels:
# [1] = test system: MILI (PIWIL2) piRISC loaded with L1MC piRNA (26 nt); assay: pre-steady-state target cleavage rate (min^-1); higher = faster piRNA-guided slicing of the target; details: guide: L1MC piRNA 5'p-UAACUAAAUACUAUGCAAGCUGUAGG
# How it was run: (§1)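 The method was Cleave-'n-Seq, in which uncleaved targets from a transcribed, DNA-blocked target RNA library were sequenced after exposure to active affinity-purified piRISC carrying one synthetic guide, with or without GTSF1 partner protein. Reactions contained 0.1 nM library, 1 nM piRISC and, where present, 500 nM GTSF1 in HEPES–potassium acetate buffer at 33 °C for 0–8 or 0–960 min. Reads were normalised to depth and to weakly complementary targets, three trials were pooled, and k3 was capped at 0.0001 min^-1. The pre-steady-state cleavage rate came from a burst-and-steady-state fit.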
# [2] = test system: EfPiwi piRISC loaded with L1MC piRNA (26 nt); assay: pre-steady-state target cleavage rate (min^-1); guide: L1MC piRNA 5'p-UAACUAAAUACUAUGCAAGCUGUAGG; MIWI and MILI are mouse PIWI proteins and EfPiwi is from a freshwater sponge; tags in brackets are library labels; higher = faster piRNA-guided slicing of the target
# How it was run: as §1
# [3] = auxiliary factor: none (no GTSF1)
# [4] = auxiliary factor: 500 nM Ephydatia muelleri Gtsf1
# [5] = auxiliary factor: none (no Gtsf1)
# [6] = auxiliary factor: 500 nM mouse GTSF1
Sequence,"pre-steady-state target cleavage rate [1, 3]","pre-steady-state target cleavage rate [2, 4]","pre-steady-state target cleavage rate [2, 5]","pre-steady-state target cleavage rate [1, 6]"
UCCUCCUACAGCUUGCAUUGUAUUUAGAAA,0.00137 ± 0.004,0.00363 ± 0.0015,0.000349 ± 0.012,–
UCCUGCUACAGCUUGCAUAGGAUUUAGUUA,0.00135 ± 0.0053,0.00356 ± 0.001,0.00068 ± 0.01,–
UCCUGGAACAGCUUGCAUAGUUUUUAGAUA,0.00126 ± 0.0057,0.00205 ± 0.0016,0.000139 ± 0.02,–
UCCUGGAUCAGCUUGCAUAUUAUUUAGUUA,0.00283 ± 0.0031,0.0367 ± 0.011,0.00536 ± 0.0048,–
UCCUGGAUCAGCUUGCAUAGUAUUUCAGUUA,0.00235 ± 0.0036,0.00187 ± 0.0024,0.000234 ± 0.027,–
UCCUCCAACAGCUUGCAUAGUAUUUAGAAA,0.00205 ± 0.0038,0.00461 ± 0.0019,0.00059 ± 0.0094,–
UCCUGGAUCACCUUGCAUAGUAUUUUGUUA,0.00149 ± 0.005,0.00229 ± 0.0037,0.000607 ± 0.014,–
UCCUCCUACAGCUUGCAUAGAAUUUACUUA,0.000889 ± 0.005,0.00178 ± 0.0026,0.000188 ± 0.022,–
UCCUGCUACUGCUUGCAUAGUAUUUAGUAA,0.00146 ± 0.0035,0.00464 ± 0.0016,0.000388 ± 0.013,–
UCCUGGAUGAGCUUGCAUAGUAUAUAGAUA,0.00127 ± 0.0063,0.00245 ± 0.0025,0.00063 ± 0.018,–
UCCUCCAACAGCAUGCAUAGUAUUUAGUUA,–,0.0161 ± 0.0047,0.001 ± 0.0071,0.282 ± 0.016
UCCUGGAUGUCCUUGCAUAGUAUGUAGUUA,0.00187 ± 0.004,0.00374 ± 0.0037,0.000633 ± 0.013,–
UCCUGGAACAGCUUGCAAAGUAUUUUGUUA,0.00159 ± 0.0041,0.0012 ± 0.0036,0.000322 ± 0.025,–
UCCUGGUACAGCUUGCAUACUAUUAAGUUA,0.00154 ± 0.0045,0.00282 ± 0.0022,0.00051 ± 0.018,–
UCCUGGAACAGCUACCAUAGUAUUUACAAA,0.000328 ± 0.02,0.000389 ± 0.014,0.000117 ± 0.043,–
UCCUGGAACAGCUUGCAUAGAAUUAAGUUA,0.00101 ± 0.0065,0.00115 ± 0.0033,0.00049 ± 0.013,–
UCCUGCUACAGCUUGGAUAGUAUUUACUUA,0.000205 ± 0.014,0.00152 ± 0.0027,0.00012 ± 0.04,–
UCCUGGAUGUGCUUGCAUUGUAUUUUGUUA,0.00215 ± 0.0042,0.00049 ± 0.0093,0.000147 ± 0.055,–
UCCUGCAACAGCAUGCAUAGUAUUUAGUUA,–,0.0232 ± 0.0055,0.00137 ± 0.006,0.329 ± 0.023
UCCUGGAACACGUUGCAUAGUAUUUAGUAA,0.00299 ± 0.0037,0.00365 ± 0.0034,0.000754 ± 0.013,–
UCCUGGAACAGCUUGGAUAGUUUUUAGUUA,0.00319 ± 0.0033,0.00298 ± 0.0022,0.000764 ± 0.012,–
UCCUGGUACAGCUUGGAUAGAAUUUAGUUA,0.00256 ± 0.0041,0.00116 ± 0.0069,0.000345 ± 0.03,–
UCCUGGAUGUGCUUGCAUACUAUAUAGUUA,0.000909 ± 0.0079,0.000795 ± 0.0056,0.00025 ± 0.042,–
UCCUGGAUGUGCUUGGAUAGUAUUUUGUUA,0.00222 ± 0.0039,0.000565 ± 0.0056,0.000332 ± 0.039,–

# Part of the list above, with bars between the fields.
Sequence | pre-steady-state target cleavage rate [1, 3] | pre-steady-state target cleavage rate [2, 4] | pre-steady-state target cleavage rate [2, 5] | pre-steady-state target cleavage rate [1, 6]
UCCUGGAACAGCUUGCAAAGUAUUUUGUUA | 0.00159 ± 0.0041 | 0.0012 ± 0.0036 | 0.000322 ± 0.025 | –
UCCUGGAACAGCUUGCAUAGAAUUAAGUUA | 0.00101 ± 0.0065 | 0.00115 ± 0.0033 | 0.00049 ± 0.013 | –
